Test results as given in PubChem BioAssay AID1259415 (National Center for Advancing Translational Sciences (NCATS), 2018).
Out of some 410,000 compounds screened, about 18,000 (4.4%) were called active. This list was built around the results that the source calls inconclusive (neither active nor inactive); the mix of calls is not that of the screen. Rule as the data show it: active = activity change below about -60%; inconclusive = no clear call, values can overlap the other calls; inactive = above about -39%.

Assay: qHTS Assay for inhibitors of the human cytomegalovirus (HCMV)
Details: HFF cells, HCMV-luciferase reporter, 72 h; at 57.5 µM; stronger effect = lower value
How it was run: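 After 16 h attachment at 37C, HFF cells received test compound and HCMV-luciferase (1 PFU/cell); reporter luminescence read 72 h later, data normalized against buffer-only and known inhibitor Salinomycin.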
% is scaled to controls: 0 for no effect and ±100 for the full control effect.

| SMILES | activity change, negative = inhibition |
| --- | --- |
| CCCCC(=O)Nc1cccc(-c2csc(-c3ccccc3)n2)c1 | inconclusive: -40.7% |
| COCCN1C(=O)Cc2c1nc(N)c1c(N)nc(N3CCN(c4ccc(F)cc4)CC3)c(C#N)c21 | inconclusive: -40.7% |
| C=CCC1NS(=O)(=O)OC(CCc2ccccc2)C1O (stereo not given) | inconclusive: -59.4% |
| CC1Cc2nc(SCC(=O)NC3CCCCC3)n(C)c(=O)c2S1 (stereo not given) | inconclusive: -49.3% |
| O=C(N/C(=C/c1ccc(Br)cc1)C(=O)N1CCOCC1)c1cccs1 | active: -62.2% |
| CC(=O)Nc1ccc2c(CN3C(=O)NC(C)(c4ccc(C)cc4)C3=O)cc(=O)oc2c1 (stereo not given) | inactive: -1.81% |
| O=C(Cn1cnc2c(cnn2-c2ccccc2)c1=O)N1CCCc2ccccc21 | inconclusive: -57.9% |
| Cc1ccc(C)c(C(=O)C(C)Sc2nc3nn(-c4ccccc4)c(=O)c-3c3n2CCCCC3)c1 (stereo not given) | inconclusive: -40% |
| CCOC(=O)C1(Cc2ccccc2)CCN(Cc2cccc3c2OCO3)CC1 | inconclusive: -59.6% |
| COc1cccc(-c2nc(CS(=O)CC(=O)N3CCN(c4cccc(C(F)(F)F)c4)CC3)c(C)o2)c1 (stereo not given) | inconclusive: -40.6% |
| COCCNC(=O)C1Nc2ccc(OC(F)(F)F)cc2C2C=CCC12 (stereo not given) | inconclusive: -41.3% |
| N#CC1=C(N)C(C#N)(C#N)[C@H](c2ccoc2)[C@H]2CN(Cc3ccccc3)CC=C12 | inconclusive: -59.8% |
| COc1ccc(F)cc1C(=O)C1CCCN(Cc2ccc(Oc3ncccn3)cc2)C1 (stereo not given) | inconclusive: -55.6% |
| O=C(COC(=O)CCNS(=O)(=O)c1ccc(Cl)cc1)NCc1ccccc1 | inactive: 41.7% |
| COc1ccc2c(c1)C(=O)N(c1ccc(C)cc1C)C(=O)C2 | inconclusive: -40.1% |
| COc1ccc(NC(=O)CCCS(=O)(=O)c2nc(-c3ccc(OC)c(OC)c3)cc(C(F)(F)F)n2)cc1OC | active: -99.8% |
| CCc1ccc(CNC(=O)CSCc2cnn(-c3ccccc3)c2-n2cccc2)cc1 | inactive: -5.52% |
| CCc1nnc(N2C(=O)c3ccc(Oc4ccc([N+](=O)[O-])cc4)cc3C2=O)s1 | inconclusive: -43.5% |
| NC(=O)C1CCCN(C(=O)CCc2nnc(C3(c4ccc(Cl)cc4)CCC3)o2)C1 (stereo not given) | inactive: -30.1% |
| CC(C)CN(C(=O)CSc1n[nH]c(-c2cccs2)n1)C1CCS(=O)(=O)C1 (stereo not given) | inconclusive: -52.1% |
| Cc1oc(-c2ccc3ccccc3c2)nc1CN(C)C(C)c1ccncn1 (stereo not given) | inactive: -5.09% |
| O=S(=O)(c1cccs1)N1CCN(c2ccccc2F)CC1 | inconclusive: -49.8% |
| Cc1ccc(C(=O)NC(=C(Cl)Cl)S(=O)(=O)c2ccc(Cl)cc2)cc1 | inactive: -11% |
| CCn1c(=O)cc(SCC(=O)Nc2ccc(C)cn2)c2ccccc21 | active: -94.6% |
| CCCCn1c(SCC(=O)Nc2cccc(C)n2)nnc1-c1ccco1 | inactive: -7.66% |
| Cn1cc([N+](=O)[O-])c(C(=O)Nc2ccc3c(c2)OCCO3)n1 | active: -91% |
| COC(=O)c1ccc(OC(=O)c2ccncc2)cc1O | inconclusive: -46.4% |
| O=C(CNC(=O)c1cccs1)N/N=C/c1c(F)cccc1Cl | active: -60% |

A draw from above in order of SMILES length, low to high.

| SMILES | activity change, negative = inhibition |
| --- | --- |
| O=S(=O)(c1cccs1)N1CCN(c2ccccc2F)CC1 | inconclusive: -49.8% |
| O=C(CNC(=O)c1cccs1)N/N=C/c1c(F)cccc1Cl | active: -60% |
| CCCCC(=O)Nc1cccc(-c2csc(-c3ccccc3)n2)c1 | inconclusive: -40.7% |
| CCCCn1c(SCC(=O)Nc2cccc(C)n2)nnc1-c1ccco1 | inactive: -7.66% |
| COCCNC(=O)C1Nc2ccc(OC(F)(F)F)cc2C2C=CCC12 (stereo not given) | inconclusive: -41.3% |
| Cc1oc(-c2ccc3ccccc3c2)nc1CN(C)C(C)c1ccncn1 (stereo not given) | inactive: -5.09% |
| CCOC(=O)C1(Cc2ccccc2)CCN(Cc2cccc3c2OCO3)CC1 | inconclusive: -59.6% |
| O=C(COC(=O)CCNS(=O)(=O)c1ccc(Cl)cc1)NCc1ccccc1 | inactive: 41.7% |
| CCc1ccc(CNC(=O)CSCc2cnn(-c3ccccc3)c2-n2cccc2)cc1 | inactive: -5.52% |
| Cc1ccc(C(=O)NC(=C(Cl)Cl)S(=O)(=O)c2ccc(Cl)cc2)cc1 | inactive: -11% |
| CC(C)CN(C(=O)CSc1n[nH]c(-c2cccs2)n1)C1CCS(=O)(=O)C1 (stereo not given) | inconclusive: -52.1% |
| NC(=O)C1CCCN(C(=O)CCc2nnc(C3(c4ccc(Cl)cc4)CCC3)o2)C1 (stereo not given) | inactive: -30.1% |
| CCc1nnc(N2C(=O)c3ccc(Oc4ccc([N+](=O)[O-])cc4)cc3C2=O)s1 | inconclusive: -43.5% |
| CC(=O)Nc1ccc2c(CN3C(=O)NC(C)(c4ccc(C)cc4)C3=O)cc(=O)oc2c1 (stereo not given) | inactive: -1.81% |
| N#CC1=C(N)C(C#N)(C#N)[C@H](c2ccoc2)[C@H]2CN(Cc3ccccc3)CC=C12 | inconclusive: -59.8% |
| COCCN1C(=O)Cc2c1nc(N)c1c(N)nc(N3CCN(c4ccc(F)cc4)CC3)c(C#N)c21 | inconclusive: -40.7% |

(continued)

| SMILES | activity change, negative = inhibition |
| --- | --- |
| O=C(NCCCN1CCN(c2ccccc2)CC1)c1cc2c(s1)-c1ccccc1OC2 | inconclusive: -53.5% |
| CC(=O)N1c2ccc(S(=O)(=O)N3CCC(C(=O)N4CCN(c5ccc(Cl)cc5)CC4)CC3)cc2CC1C (stereo not given) | active: -74.3% |
| O=C1N=C(N2CCOCC2)S/C1=C\c1ccc(OS(=O)(=O)c2ccccc2)cc1 | inconclusive: -58.6% |
| CCC1CN(C(=O)Nc2cccc3c2CCCC3)c2cc(C)ccc2O1 (stereo not given) | inconclusive: -45% |
| COc1ccc(N(CC(=O)Nc2ccc(OC)cc2OC)S(=O)(=O)c2ccccc2)cc1 | active: -64.6% |
| COc1ccc(OCC(O)CN2CCN(c3ccccc3)CC2)cc1 (stereo not given) | inconclusive: -51% |
| O=C(COc1ccccc1F)Nc1nnc(S(=O)(=O)N2CCCCCC2)s1 | inactive: 1.87% |
| Cc1ccccc1C1=NC(C)(CC(=O)NCCOc2ccccc2)ON1C (stereo not given) | inactive: -7.88% |
| Cc1cccc(NC(=O)c2c(Br)sc3c2CCCC3)c1 | inactive: 0.124% |
| Cc1cc(OCCn2cnc3ccccc3c2=O)ccc1[N+](=O)[O-] | inactive: 25.6% |
| COc1cc(OC)c(N(C)S(=O)(=O)c2cccc(C(=O)Nc3nc(C)cs3)c2)cc1Cl | inactive: 11.1% |
| CCCOC(=O)/C(C(N)=NCc1ccccc1)=C(\O)OCCC | inconclusive: -57.3% |
| CCCN1CCN(C(=S)Nc2ccc([N+](=O)[O-])cc2)CC1 | inactive: 50.6% |
| C=CCN1C(=O)/C(=C\C=C2\N(C)c3ccccc3C2(C)C)SC1=S | inconclusive: -59.2% |
| Cc1c(C#N)c(NC(=O)CCl)n(Cc2ccc(F)cc2)c1C | active: -67.7% |
| CCC(C)NS(=O)(=O)c1ccc(S(=O)(=O)Nc2cc3c(cc2C(C)=O)OCO3)cc1 (stereo not given) | inactive: -25.6% |
| O=C(Nc1ccc2c(c1)CCCN2C(=O)c1ccccc1)c1ccccc1Br | active: -70.2% |
| O=S(=O)(Cc1ccccc1Cl)NCc1ccccc1 | inconclusive: -45.1% |
| COc1ccc(C2N(c3ccccc3)CCN2c2ccccc2)cc1O | inconclusive: -45.7% |
| S=C1NCCN1 | inconclusive: -56.3% |
| CC(=O)C(Cc1ccccc1)NC(=O)CN(C)Cc1ccccc1Cl (stereo not given) | inactive: -27.4% |
| CC(C)CCNC(=O)CSc1nc2ccsc2c(=O)n1Cc1ccccc1Cl | inconclusive: -44.9% |
| CCC(C)c1ccccc1NC(=O)C(C)OC(=O)c1ccco1 (stereo not given) | inconclusive: -51% |
| Cc1ccc(S(=O)(=O)NC2(C(F)(F)F)NC(=O)N(Cc3ccccc3)C2=O)cc1 (stereo not given) | inconclusive: -46.1% |
| NC(=O)CC(NC(=O)Cc1ccc(Br)cc1)c1ccc(NCc2ccc(F)cc2)c([N+](=O)[O-])c1 (stereo not given) | inactive: -38.9% |
| Cc1cccc(-c2cc3nc(C)cc(C)n3n2)c1 | inactive: 172% |
| CCOC(=O)Nc1ccc2c(c1)Cc1cc([N+](=O)[O-])ccc1-2 | active: -90% |
